{"source": "the supplement of paper PMC3334620", "note": "Whole data set: some 33,000 sequences, median “E-score (-0.5 to 0.5)” near -0.015, cut for the highest 2% near 0.3. Some of the results follow."}
{"molecular_target": "T1, Abf1 (UniProt P14164)", "T1 sequence": "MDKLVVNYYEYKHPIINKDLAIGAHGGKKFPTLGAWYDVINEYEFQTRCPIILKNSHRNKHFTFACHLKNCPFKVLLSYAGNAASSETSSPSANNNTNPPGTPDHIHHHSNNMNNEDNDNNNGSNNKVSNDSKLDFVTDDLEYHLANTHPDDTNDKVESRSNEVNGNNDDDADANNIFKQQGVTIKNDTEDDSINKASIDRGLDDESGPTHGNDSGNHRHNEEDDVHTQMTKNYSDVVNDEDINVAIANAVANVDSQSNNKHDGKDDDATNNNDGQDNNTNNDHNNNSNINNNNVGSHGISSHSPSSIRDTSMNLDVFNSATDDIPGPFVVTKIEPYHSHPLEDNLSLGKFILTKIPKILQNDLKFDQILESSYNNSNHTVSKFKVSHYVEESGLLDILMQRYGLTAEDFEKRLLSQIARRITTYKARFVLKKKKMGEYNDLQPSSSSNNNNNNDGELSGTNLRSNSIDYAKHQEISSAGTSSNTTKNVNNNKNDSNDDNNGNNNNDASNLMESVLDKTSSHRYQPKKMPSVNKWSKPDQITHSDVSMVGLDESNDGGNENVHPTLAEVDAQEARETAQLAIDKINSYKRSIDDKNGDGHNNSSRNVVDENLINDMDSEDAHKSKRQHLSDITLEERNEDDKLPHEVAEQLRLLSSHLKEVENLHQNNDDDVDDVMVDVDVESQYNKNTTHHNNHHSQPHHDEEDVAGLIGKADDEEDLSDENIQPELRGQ", "assay": "PBM E-score (8-mer binding enrichment) (E-score (-0.5 to 0.5)); higher = stronger / more preferred TF binding", "settings": "protein concentration: 200 nM; construct: GST-full length", "how_it_was_run": "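Universal all-10-mer Agilent arrays, double-stranded by primer extension on fresh or once-stripped slides, were probed with about 100-200 nM GST-tagged yeast transcription factors made by PURExpress. Fluorescent anti-GST detected bound protein, and masliner normalised the scans. E-scores from the Universal PBM Analysis Suite were given to each ungapped eight-base word pooled with its reverse complement.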"}
{"sequence": "AATACTCA", "PBM E-score": 0.162}
{"sequence": "ATAGGGGG", "PBM E-score": -0.334}
{"sequence": "ATAGTGGC", "PBM E-score": -0.018}
{"sequence": "AAGGCTGG", "PBM E-score": -0.0746}
{"sequence": "CCCAAAAG", "PBM E-score": -0.135}
{"sequence": "CTCACGAC", "PBM E-score": 0.199}
{"sequence": "AGTGGAGA", "PBM E-score": -0.00617}
{"sequence": "AGTAGAGA", "PBM E-score": -0.103}
{"sequence": "CTAGGACC", "PBM E-score": -0.307}
{"sequence": "CTCGGTAC", "PBM E-score": 0.0166}
{"sequence": "TACCGGAA", "PBM E-score": -0.0691}
{"sequence": "CCCGACAA", "PBM E-score": 0.0221}
{"sequence": "CCCGCGTA", "PBM E-score": -0.167}
{"sequence": "AGTATAAA", "PBM E-score": 0.252}
{"sequence": "CGTCTGTA", "PBM E-score": 0.139}
{"sequence": "ACAATGGG", "PBM E-score": -0.045}
{"sequence": "GCGCTCAC", "PBM E-score": -0.0532}
{"sequence": "AGGATGAA", "PBM E-score": -0.0322}
{"sequence": "ATGGGCAC", "PBM E-score": 0.0779}
{"sequence": "GAGCGGGC", "PBM E-score": -0.188}
{"sequence": "AGACAATC", "PBM E-score": 0.11}
{"sequence": "AAAGCTCA", "PBM E-score": -0.0175}
{"sequence": "GAAACCCA", "PBM E-score": 0.086}
{"sequence": "CTTAACAA", "PBM E-score": 0.0437}
{"sequence": "AGTCCCGG", "PBM E-score": -0.367}
{"sequence": "CACGTTAA", "PBM E-score": -0.0533}
{"sequence": "AGCTGCGG", "PBM E-score": -0.329}
{"sequence": "GCGCTATA", "PBM E-score": -0.0492}
{"sequence": "ATCTGTTG", "PBM E-score": -0.16}
{"sequence": "TGAGACCA", "PBM E-score": -0.107}
{"sequence": "CTGCACGC", "PBM E-score": -0.24}
{"sequence": "AAGCCTAG", "PBM E-score": -0.127}
{"sequence": "ACAGATCG", "PBM E-score": 0.0874}
{"sequence": "AGAATGAG", "PBM E-score": -0.157}
{"sequence": "AGGCGAGA", "PBM E-score": -0.143}
{"sequence": "ACCAGGAC", "PBM E-score": -0.203}
{"sequence": "ACAAGAAA", "PBM E-score": 0.0193}
{"sequence": "CCTTTCTA", "PBM E-score": -0.0753}
{"sequence": "GACACAAA", "PBM E-score": 0.0703}
{"sequence": "CGTAGGAC", "PBM E-score": 0.0785}
{"sequence": "CGCGATAC", "PBM E-score": 0.0688}
{"sequence": "AATCCATA", "PBM E-score": 0.0202}
{"sequence": "CTCGTGCA", "PBM E-score": 0.124}
{"sequence": "CGGAATCC", "PBM E-score": -0.13}
{"sequence": "CGACTAGA", "PBM E-score": -0.0323}
{"sequence": "CCAGGCTA", "PBM E-score": -0.22}
{"sequence": "ACTCACCG", "PBM E-score": -0.0469}
{"sequence": "GCTTACTA", "PBM E-score": -0.115}
{"sequence": "ACAACGGG", "PBM E-score": 0.198}
{"sequence": "CCACGTCG", "PBM E-score": -0.00795}
{"sequence": "AGAATCAC", "PBM E-score": 0.0856}
{"sequence": "CTTGAGCA", "PBM E-score": -0.112}
{"sequence": "ACGGCAAT", "PBM E-score": 0.277}
{"sequence": "CATTTGAC", "PBM E-score": -0.0151}
{"sequence": "CCGACGGA", "PBM E-score": 0.0216}
{"sequence": "GTAGGACA", "PBM E-score": 0.095}
{"sequence": "TCACGTGA", "PBM E-score": 0.135}
{"sequence": "GTCCCAAA", "PBM E-score": -0.0319}
{"sequence": "CTAACTAC", "PBM E-score": 0.125}
{"sequence": "CAGGCTCG", "PBM E-score": -0.0152}
{"sequence": "GGAACAAA", "PBM E-score": 0.0294}
{"sequence": "GAAAATTA", "PBM E-score": 0.0837}
{"sequence": "GCGACTCA", "PBM E-score": 0.00435}
{"sequence": "ACACCGAT", "PBM E-score": -0.134}
{"sequence": "AGTTGACA", "PBM E-score": 0.221}
{"sequence": "ACCGCATA", "PBM E-score": 0.0566}
{"sequence": "CCGGCGTC", "PBM E-score": -0.0803}
{"sequence": "CTCGCGTC", "PBM E-score": -0.0662}
{"sequence": "CAATATAC", "PBM E-score": 0.107}
{"sequence": "ACTATTCT", "PBM E-score": 0.089}
{"sequence": "CGTGCTTA", "PBM E-score": 0.0846}
{"sequence": "GCCATCCC", "PBM E-score": -0.255}
{"sequence": "ACAGACAC", "PBM E-score": -0.0281}
{"sequence": "CCTACATC", "PBM E-score": 0.0243}
{"sequence": "GCTCATCA", "PBM E-score": 0.189}
{"sequence": "AGAATTGC", "PBM E-score": -0.127}
{"sequence": "AGTGCTAC", "PBM E-score": 0.0565}
{"sequence": "CAAGCTGC", "PBM E-score": -0.227}
{"sequence": "CCAAGGAC", "PBM E-score": -0.0293}
{"sequence": "CAATAACA", "PBM E-score": -0.0367}
{"sequence": "AGAACGCA", "PBM E-score": -0.0532}
{"sequence": "TCGATCAA", "PBM E-score": -0.0096}
{"sequence": "TGAGCAAA", "PBM E-score": 0.109}
{"sequence": "TCTGTCAA", "PBM E-score": 0.0208}
{"sequence": "CTGTCTGA", "PBM E-score": -0.106}
{"sequence": "ATGTCCGC", "PBM E-score": -0.0181}
{"sequence": "GAATTATC", "PBM E-score": 0.137}
{"sequence": "CACAAAAC", "PBM E-score": -0.0381}
{"sequence": "CCCCATCC", "PBM E-score": -0.162}
{"sequence": "ATAAGGTG", "PBM E-score": 0.146}
{"sequence": "GACATCGC", "PBM E-score": 0.272}
{"sequence": "ATGGTCCA", "PBM E-score": -0.148}
{"sequence": "TCGGACAA", "PBM E-score": 0.0647}
{"sequence": "TTAGATAA", "PBM E-score": 0.139}
{"sequence": "CGTGCATA", "PBM E-score": 0.251}
{"sequence": "AGGTACAT", "PBM E-score": 0.144}
{"sequence": "CCCTAGGA", "PBM E-score": -0.261}
{"sequence": "CGGTTTCC", "PBM E-score": -0.0609}
{"sequence": "CAACAGTC", "PBM E-score": -0.257}
{"sequence": "AATCACGA", "PBM E-score": 0.309}
{"sequence": "CTCGTATC", "PBM E-score": 0.26}
{"sequence": "ACGAACCC", "PBM E-score": 0.0128}
{"sequence": "CCGAAGAA", "PBM E-score": -0.122}
{"sequence": "TATACTCA", "PBM E-score": 0.0461}
{"sequence": "AGTCAGTA", "PBM E-score": -0.134}
{"sequence": "GCTCCTCA", "PBM E-score": -0.167}
{"sequence": "ATAATTTC", "PBM E-score": 0.176}
{"sequence": "ATAGGAAA", "PBM E-score": 0.126}
{"sequence": "AGTCCTTC", "PBM E-score": -0.141}
